The record followed here is paper PMC10891134, “Bacteria employ lysine acetylation of transcriptional regulators to adapt gene expression to cellular metabolism” (Nature Communications, 2024).

For at least one entry, the source does not settle the construct or the ends of the probe. For some assays here: Weaker means in comparison with the reference protein, sequence or condition of that experiment. For some assays here: At least one verdict rests on a figure or table, not on a statement of the authors. For some assays here: Protein sequences can lack the tags named with them.

In data set [1] the target is T1, RutR K52Q (UniProt P0ACU2).
T1 sequence (looked up, limits assumed): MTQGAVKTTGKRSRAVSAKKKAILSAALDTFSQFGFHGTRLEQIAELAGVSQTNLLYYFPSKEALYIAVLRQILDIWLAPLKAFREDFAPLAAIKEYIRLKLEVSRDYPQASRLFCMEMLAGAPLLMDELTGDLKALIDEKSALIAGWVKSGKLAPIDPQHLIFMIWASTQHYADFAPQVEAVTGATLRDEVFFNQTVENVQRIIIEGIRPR
Briefly: EMSA. The conditions noted are these: EMSA: 20 mM Tris-HCl pH 7.5, 100 mM KCl, 2 mM DTT, 10% glycerol, 25 nM DNA, 30 C; recombinant protein; protein details: His6.

Data set [2] has as its target RutR AcK11 K11AcK (UniProt P0ACU2). Briefly: EMSA. The conditions noted are these: EMSA: 20 mM Tris-HCl pH 7.5, 100 mM KCl, 2 mM DTT, 10% glycerol, 25 nM DNA, 30 C; recombinant protein; protein details: His6.
Data set [3] addresses RutR AcK7 K7AcK (UniProt P0ACU2). Briefly: EMSA. The conditions noted are these: EMSA: 20 mM Tris-HCl pH 7.5, 100 mM KCl, 2 mM DTT, 10% glycerol, 25 nM DNA, 30 C; recombinant protein; protein details: His6.
The target in data set [4] is RutR AcK150 K150AcK (UniProt P0ACU2). Briefly: EMSA. The conditions noted are these: EMSA: 20 mM Tris-HCl pH 7.5, 100 mM KCl, 2 mM DTT, 10% glycerol, 25 nM DNA, 30 C; recombinant protein; protein details: His6.
Data set [5] deals with RutR AcK95 K95AcK (UniProt P0ACU2). Briefly: EMSA. The conditions noted are these: EMSA: 20 mM Tris-HCl pH 7.5, 100 mM KCl, 2 mM DTT, 10% glycerol, 25 nM DNA, 30 C; recombinant protein; protein details: His6. Background: Mobility shift assays separate free from complexed probe on a gel.
Data set [6] concerns the target RutR AcK21 K21AcK (UniProt P0ACU2). Briefly: EMSA. The conditions noted are these: EMSA: 20 mM Tris-HCl pH 7.5, 100 mM KCl, 2 mM DTT, 10% glycerol, 25 nM DNA, 30 C; recombinant protein; protein details: His6.
The target of data set [7] is RutR AcK11 K11AcK (UniProt P0ACU2). Briefly: SPR. The conditions noted are these: SPR: 100 mM potassium phosphate pH 6.4, 300 mM NaCl, 0.05% Tween20, 25 C; recombinant protein; protein details: His6.
The target of data set [8] is RutR AcK7 K7AcK (UniProt P0ACU2). Briefly: SPR. The conditions noted are these: SPR: 100 mM potassium phosphate pH 6.4, 300 mM NaCl, 0.05% Tween20, 25 C; recombinant protein; protein details: His6.

With “GTTTTATGTGCAACTGTTTTGACCGTTTAGTCCACTTTTTACCAGATATTTTAG (double strand) [boxrutA]”, the binding result in data set [1] is on record as “binds more weakly”; in data set [2], “binds”; in data set [3], “binds”; in data set [4], “binds”; in data set [5], “binds”; in data set [6] it was “binds”.
For the sequence “GTTTTAATGTAAATTTTGACCATTTGGTCCACTTTTTTCTGCTCGT (double strand) [boxcarA]”, the binding result in data set [1] is reported as “binds more weakly”; in data set [2], “binds”; in data set [3] it was “binds”; in data set [4] it was “binds”; in data set [5], “binds”; in data set [6] it was “binds”.
Take “GTTTTAATGTAAATTTTGACCATTTGGTCCACTTTTTTCTGCTCGT (double strand) [biotin-boxcarA]”: the binding result in data set [7] and in data set [8] was “binds more weakly” in each case.
